{"sequences": {"note": "By UniProt entry, the sequences of proteins in these tests, tags left out.", "UniProt P27695, whole entry, looked up": "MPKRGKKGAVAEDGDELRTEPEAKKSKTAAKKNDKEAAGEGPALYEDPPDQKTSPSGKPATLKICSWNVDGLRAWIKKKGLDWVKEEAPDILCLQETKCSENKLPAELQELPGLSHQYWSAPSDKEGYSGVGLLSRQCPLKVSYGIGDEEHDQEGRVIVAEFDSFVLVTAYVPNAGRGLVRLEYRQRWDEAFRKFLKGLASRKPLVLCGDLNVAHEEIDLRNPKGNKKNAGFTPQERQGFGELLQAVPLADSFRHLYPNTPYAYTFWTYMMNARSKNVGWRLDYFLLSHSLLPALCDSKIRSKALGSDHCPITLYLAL"}, "source": "PubChem BioAssay AID2517", "about": "(National Center for Advancing Translational Sciences (NCATS), 2010)", "note": "Where “and” joins values, the source holds several entries; their conditions need not be identical. Equal entries are not always repeated. Hit rate of the full screen: of about 350,000 compounds, about 1,200 (0.34%) were called active. This list was built around the results that the source calls inconclusive (neither active nor inactive); the mix of calls is not that of the screen. The call rests on the fitted dose curve; in most records, active means well fitted inhibition curve with a large enough effect; inconclusive means small, poorly fitted or top-dose-only effect; inactive means no such curve, though single readings can be large or run the other way. A potency beside an inconclusive call is a rough fit, not a confirmed value. Potency means the concentration at half of the fitted maximal effect."}
{"molecular_target": "DNA repair nuclease/redox regulator APEX1 (Homo sapiens) (UniProt P27695)", "assay": "qHTS Assay for Inhibitors of the Human Apurinic/apyrimidinic Endonuclease 1 (APE1); further: nearly all actives have a fitted effect of over 55% in size", "settings": "recombinant APE1, TAMRA/BHQ-2 abasic DNA cleavage fluorescence; series mostly up to 65.8 µM", "summary_of_the_method": "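Substrate: short duplex with […] THF abasic site, 5'-TAMRA and 3'-BHQ-2, 50 nM final. APE1 at 0.75 nM, preincubated 15 min RT with compound. Fluorescence increase from first to third read measured activity.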"}
{"smiles": "CN(C)c1ccc(C(=C2C=CC(=[N+](C)C)C=C2)c2ccc(N(C)C)cc2)cc1", "Potency": "inactive and inconclusive: 20 µM [inhibitor, partial curve]"}
{"smiles": "CCCS(=O)(=O)c1nc(S(=O)(=O)c2ccc(C)cc2)c(NCCCN(C)C)s1", "Potency": "inconclusive: 25.1 µM [inhibitor, single point]"}
{"smiles": "COc1ccc(-c2csc(NC(=S)NC(=O)/C=C/c3ccco3)n2)cc1OC", "Potency": "inconclusive: 35.5 µM [inhibitor, single point]"}
{"smiles": "COc1ccc(C(=O)NCc2ccc3c(c2)cc(C)n3C)cc1", "Potency": "inconclusive: 44.7 µM [inhibitor, single point]"}
{"smiles": "Cc1cccn2c(=O)c(/C=C(\\C#N)C(=O)NC3CCS(=O)(=O)C3)c(N3CCC(C)CC3)nc12", "note": "(stereo not drawn)", "Potency": "inconclusive: 25.1 µM [inhibitor, single point]"}
{"smiles": "COc1ccc(Cc2[nH]n3c(=O)c(Cl)c(C)nc3c2-c2ccccc2)cc1", "Potency": "inconclusive: 44.7 µM [inhibitor, single point]"}
{"smiles": "Oc1ccc(/C=N/NC(=S)Nc2cccnc2)cc1O", "Potency": "inconclusive: 3.16 µM [inhibitor, full curve]"}
{"smiles": "COC(=O)c1cc2ccccc2oc1=O", "Potency": "inactive"}
{"smiles": "CNC(=O)c1cc(S(=O)(=O)N(C)C)ccc1Cl", "Potency": "inconclusive: 7.94 µM [inhibitor, single point]"}
{"smiles": "Cc1occc1-c1nnc(SCC(=O)NCc2ccco2)n1CC(C)C", "Potency": "inconclusive: 39.8 µM [inhibitor, single point]"}
{"smiles": "CCC(=O)c1ccc(OCC(=O)NCC2(N3CCCCC3)CCCCC2)cc1", "Potency": "inconclusive: 0.355 µM [inhibitor, full curve, poor fit]"}
{"smiles": "CSc1ccc(S(=O)(=O)NCc2ccc(Cl)cc2)cc1", "Potency": "inconclusive: 20 µM [inhibitor, single point]"}
{"smiles": "Cc1cccc(NC(=O)CN2C(=O)S/C(=C\\c3ccc(-c4cccc(C(=O)O)c4C)o3)C2=O)c1", "Potency": "inconclusive: 28.2 µM [inhibitor, single point]"}
{"smiles": "COC(=O)C(N)Cc1ccc(O)c(O)c1", "note": "(stereo not drawn)", "Potency": "inconclusive: 1 µM [inhibitor, full curve]"}
{"smiles": "Cn1c(=O)c(N)c2c3c(c(Br)ccc31)C(=O)c1ccccc1-2", "Potency": "inactive"}
{"smiles": "O=C(CN1C(=O)c2ccccc2S1(=O)=O)Nc1ccc(S(=O)(=O)N2CCCCCC2)cc1", "Potency": "inconclusive: 10 µM [inhibitor, partial curve, poor fit]"}
{"smiles": "Cc1ccc(C2CCN(C(=S)Nc3cccc(Cl)c3)C2)cc1", "note": "(stereo not drawn)", "Potency": "inconclusive: 35.5 µM [inhibitor, partial curve]"}
{"smiles": "CCOc1ccc(C(=O)CC(NCc2cccs2)C(=O)O)cc1", "note": "(stereo not drawn)", "Potency": "inconclusive: 31.6 µM [inhibitor, single point]"}
{"smiles": "COc1cc(/C=C2\\SC(=O)N(c3ccc(Cl)cc3)C2=O)cc([N+](=O)[O-])c1O", "Potency": "inconclusive: 3.98 µM [inhibitor, full curve, poor fit]"}
{"smiles": "CC(=O)N1CCC2(CC1)C/C(=N\\NC(=S)Nc1ccc(C)cc1)c1cc(O)ccc1O2", "Potency": "inconclusive: 20 µM [inhibitor, partial curve, poor fit]"}
{"smiles": "Cc1cc(=O)oc2c(O)c(O)ccc12", "Potency": "inactive"}
{"smiles": "O=C(NNC(=O)c1ccccc1F)c1ccc2nc[nH]c2c1", "Potency": "inactive"}
{"smiles": "O=C(OCc1cc(=O)n2c(n1)sc1ccccc12)c1cccc(O)c1", "Potency": "inactive"}
{"smiles": "CCCCC#Cc1ccccc1CC(=O)Nc1ccccc1", "Potency": "inactive"}
{"smiles": "CSc1nc2sc3c(c2c(=O)n1C)CCCC3", "Potency": "inconclusive: 2.51 µM [inhibitor, partial curve]"}
{"smiles": "CCOC(=O)N1CCN(c2nc(-c3cccc(OC)c3)cc(C(F)(F)F)n2)CC1", "Potency": "inactive"}
{"smiles": "O=c1[nH]oc(O)c1-c1ncc(C(F)(F)F)cc1Cl", "Potency": "inconclusive: 0.794 µM [inhibitor, full curve, poor fit]"}
{"smiles": "Cc1c(C(=O)O)sc2nc(/C=C/c3cccc(O)c3)[nH]c(=O)c12", "Potency": "inconclusive: 21.2 µM [inhibitor, single point]"}
{"smiles": "O=C(COC(=O)CCC(=O)c1cccs1)NCc1ccc(Cl)cc1", "Potency": "inconclusive: 10 µM [inhibitor, single point]"}
{"smiles": "Nc1sc2c(c1C(=O)c1ccc(Cl)cc1)CCCC2", "Potency": "inconclusive: 0.0112 µM [inhibitor, full curve, poor fit]"}
{"smiles": "CC[C@H](C)[C@H](NC(=O)[C@H](Cc1ccc(O)cc1)NC(=O)[C@@H]1CCCN1C(=O)[C@H](CCCCN)NC(=O)[C@@H](N)CCCCN)C(=O)N[C@@H](CC(C)C)C(=O)O", "Potency": "inconclusive: 0.316 µM [inhibitor, full curve]"}
{"smiles": "CC1CCCN(C(=S)SCC(=O)O)C1", "note": "(stereo not drawn)", "Potency": "inactive"}
{"smiles": "NC(=O)c1ccc(NCCCN2CCOCC2)c([N+](=O)[O-])c1", "Potency": "inconclusive: 0.0891 µM [inhibitor, full curve, poor fit]"}
{"smiles": "Cn1nc2c3ccccc3n(Cc3ccccc3)c2nc1=S", "Potency": "inconclusive: 5.01 µM [inhibitor, partial curve]"}
{"smiles": "Cn1nc(-c2ccc(Cl)cc2)c2cc(C(=O)NCCCN3CCCC3)sc21", "Potency": "inactive"}
{"smiles": "CCOc1cccc(-c2c(C(=O)N/N=C/c3cccs3)nnn2-c2nonc2N)c1", "Potency": "inactive"}
{"smiles": "Cc1cc(C)n2c(SC/C(O)=C(\\C#N)c3nc4ccccc4[nH]3)nnc2n1", "Potency": "inconclusive: 22.4 µM [inhibitor, partial curve]"}
{"smiles": "CN(C(=O)CSc1nnc(-c2ccco2)o1)C1CCCCC1", "Potency": "inconclusive: 15.8 µM [inhibitor, single point]"}
{"smiles": "Cc1nc2c(=O)[nH]c(=S)n(C)c2nc1C", "Potency": "inactive"}
{"smiles": "COc1ccc(CN2c3cc(S(=O)(=O)N4CCOCC4)ccc3N3CCCC32)cc1", "note": "(stereo not drawn)", "Potency": "inconclusive: 1.12 µM [inhibitor, partial curve]"}
{"smiles": "CCOc1ccc(-c2nnc(Nc3ccc(OC)c(C(=O)N4CCCCC4)c3)c3ccccc23)cc1", "Potency": "inconclusive: 25.1 µM [inhibitor, single point]"}
{"smiles": "O=C(/C=C/c1ccc(Cl)c([N+](=O)[O-])c1)Nc1cccnc1", "Potency": "inconclusive: 35.5 µM [inhibitor, single point]"}
{"smiles": "O=S(=O)(c1ccccc1)N(CC(O)Cn1c2ccccc2c2ccccc21)c1ccccc1", "note": "(stereo not drawn)", "Potency": "inconclusive: 22.4 µM [inhibitor, single point]"}
